Results are given in words; binding and its absence hold for the method and conditions named. Binding seen in cells or lysates may run through a third protein. A result given as binding can be weak or reduced; the word gives no strength.
How the values were obtained:
Experiment in all cases: cross-linking; in vivo cross-linking of intact A. baumannii AB5075 cells with the PIR cross-linker BDP-NHP (500 mM Na2HPO4 pH 7.4, 150 mM NaCl, room temperature), trypsin digest, avidin enrichment, LC-MS (ReACT); cross-linked peptide pairs identified
[1] = target: haemolysin-like protein ABUW_2554 (Acinetobacter baumannii AB5075 (endogenous in AB5075 cells))
[2] = target: haemolysin-like protein ABUW_2845 (Acinetobacter baumannii AB5075 (endogenous in AB5075 cells)) (UniProt V5VFJ0)
[3] = target: lipoprotein ABUW_3571 (Acinetobacter baumannii AB5075 (endogenous in AB5075 cells))

The chains behind the UniProt entries cited, without tags or fusion partners. Where a name states a change or a piece, a line headed by the entry shows the natural chain unless it says otherwise. Residues count along the entry.
UniProt V5VFJ0: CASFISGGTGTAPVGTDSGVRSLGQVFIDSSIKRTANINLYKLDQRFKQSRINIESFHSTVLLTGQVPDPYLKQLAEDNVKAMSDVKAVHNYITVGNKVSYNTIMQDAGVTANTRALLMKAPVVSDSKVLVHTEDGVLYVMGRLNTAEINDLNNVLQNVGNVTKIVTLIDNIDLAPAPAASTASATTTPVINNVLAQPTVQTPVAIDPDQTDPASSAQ
UniProt Q9L4P2, residues 18-273: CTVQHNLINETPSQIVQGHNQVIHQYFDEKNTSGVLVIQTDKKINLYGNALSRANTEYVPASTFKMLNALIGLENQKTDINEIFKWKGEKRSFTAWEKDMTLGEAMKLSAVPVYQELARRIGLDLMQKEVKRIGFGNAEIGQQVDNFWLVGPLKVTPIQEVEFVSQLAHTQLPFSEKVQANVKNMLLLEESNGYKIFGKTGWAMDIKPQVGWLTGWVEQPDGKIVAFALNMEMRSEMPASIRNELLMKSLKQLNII

Measured: binding

β-lactamase Oxa-23 (from UniProt Q9L4P2 18-273) (enzyme)
binds: all assays above

From article PMC5114622, “In vivo protein interaction network analysis reveals porin-localized antibiotic inactivation in Acinetobacter baumannii strain AB5075” (Nature Communications, 2016)
